Experimental findings from PubChem BioAssay AID2685 (National Center for Advancing Translational Sciences (NCATS), 2010) are described below.

This test in a line: qHTS Assay for Lipid Storage Modulators in Drosophila S3 Cells.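 On cell number change: cells counted by Cell Tracker Red CMTPX staining in the red channel.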 The conditions noted are these: BODIPY lipid droplet fluorescence, 18-24 h; for cell number change: measured here: cell count max response, cells fed with added oleic acid. The gist of the method:
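Laser-scanning cytometry quantifies lipid droplet accumulation (500–530 nm total intensity; droplet/cell object ratio) in oleic acid-fed (400 uM added) Drosophila S3 cells treated with a concentration series. 20 uM Triacsin C defined 100% inhibition.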
(In qHTS, concentration-response curves come from the screen itself.)

The mark [1] stands for this setting: measured here: cell number channel AC50, cells fed with added oleic acid.
Where [2] appears, read: measured here: lipid fluorescence (Fed channel) AC50, cells fed with added oleic acid.

The other results are listed elsewhere or left out. The main result of the screen is listed elsewhere. These columns were measured beside it and carry no call. Compounds called inactive in the main read-out are mostly missing here. Words in brackets tell the shape of the fitted curve; partial curves, single points and poor fits give uncertain potencies.

Regarding `O=C(Nc1ccc(Cl)c(C(F)(F)F)c1)NC1CC2CCCC(C1)N2Cc1ccccc1` (stereo unspecified), the cell number change is -70.8%. For the same compound, the half-maximal activity concentration (AC50) (commonly the concentration giving half of the maximal activity seen) under setting [1] is 29.1 µM [falling, single point]. In addition, the AC50 under setting [2] was 29.1 µM [falling, single point].

As for `CCc1ccc(NC(=O)c2cccnc2)cc1`, the AC50 under setting [1] was 0.731 µM [rising, single point].

Regarding `CC1=C(C(=O)OCCC(C)C)C(c2ccc3c(c2)OCO3)NC(=O)N1` (stereo unspecified), the cell number change is -8.77%. For the same compound, the AC50 under setting [2] is 29.1 µM [falling, single point].

Regarding `Cc1ccc(S(=O)(=O)N(C)C)cc1NC(=O)COC(=O)c1c(-c2ccccc2)noc1C`, the cell number change came out at 15.8%.

As for `O=C(Nc1nc(-c2cccs2)cs1)c1ccc([N+](=O)[O-])o1`, the AC50 under setting [2] was 2.59 µM [falling, partial curve].

Turning to `CC(C)CC(=O)Nc1ccc(C(=O)COC(=O)C2=COCCO2)cc1`, the concentration at half-maximal activity (AC50) under setting [2] was 0.731 µM [falling, single point].

With `Cc1ccc2sc(NC(=O)CSc3nc(C)cc(C)c3C#N)nc2c1`, the cell number change was -68.4%. Moreover, under setting [1], the AC50 is 23.1 µM [falling, partial curve]. Further, the concentration at half-maximal activity (AC50) under setting [2] was 20.6 µM [falling, partial curve].

As to `Cc1ccc(C(C(=O)NCCc2ccccc2)N(C(=O)c2csnn2)C2CC2)cc1` (stereo unspecified), the cell number change was found to be 14.1%.

Turning to `c1ccc(CNc2nc(N3CCN(Cc4ccccc4)CC3)nc3ccccc23)cc1`, the cell number change is -16.8%.

With `Cc1ccc(CN2CC34C=CC(O3)C(C(=O)NCc3ccc5c(c3)OCO5)C4C2=O)cc1` (stereo unspecified), the cell number change came out at 12.9%. For the same compound, under setting [2], the concentration at half-maximal activity (AC50) was 0.259 µM [rising, partial curve, poor fit].

Consider `O=C(CN1C(=O)NC2(CCCC2)C1=O)Nc1nc2ccccc2[nH]1`, for which the cell number change is -10.2%. The concentration at half-maximal activity (AC50) under setting [2] was 23.1 µM [falling, single point].

For the compound `COc1cccc(CN(C)C(=O)CSCC(=O)Nc2cc(C)on2)c1OC`, the cell number change is -4.42%.

As for `Cc1noc(C)c1C(=O)Nc1cc(S(=O)(=O)N2CCCCC2)ccc1N(C)C`, the cell number change came to 22.5%.

Regarding `Cc1occc1C(=O)Nc1sc2c(c1C(N)=O)CCC(C(C)(C)C)C2` (stereo unspecified), the cell number change came to 31.2%. Also, under setting [1], the concentration at half-maximal activity (AC50) was 0.92 µM [rising, full curve, poor fit].

Take `O=[N+]([O-])c1ccc(P(=O)(Cc2ccccc2)c2ccccc2O)cc1` (stereo unspecified): the cell number change was -25.6%. For the same compound, the AC50 under setting [2] is 10.3 µM [falling, partial curve, poor fit].

With `O=c1oc2ccccc2c2oc3cc(O)c(O)cc3c12`, the cell number change is -6.51%.

`COc1cccc2c1OCC/C2=N\NC(=O)COc1ccc(C)cc1`: the cell number change amounted to 23.6%. Also, the AC50 under setting [2] is 29.1 µM [rising, single point].

For `CC(OC(=O)c1ccc(Cl)nc1)C(=O)NCc1ccc2c(c1)OCO2` (stereo unspecified), the cell number change stood at 24.8%. Under setting [2], the AC50 was 0.82 µM [rising, full curve].

Take `Cc1ccc2[nH]c(=O)c(CN(C)C(=O)c3ccccn3)cc2c1`: the cell number change is -0.718%. Also, the half-maximal activity concentration (AC50) under setting [1] was 0.92 µM [falling, full curve]. Further, the half-maximal activity concentration (AC50) under setting [2] was 6.51 µM [falling, single point].

On to `CCCN(CCC)CCCNC(=O)Cn1cnc2sc(C)c(S(=O)(=O)N3CCCCC3)c2c1=O`, for which the cell number change is 12.2%. Moreover, under setting [2], the AC50 was 29.1 µM [rising, single point].

Take `Cc1ccc(/C(O)=C2\C(=O)C(=O)N(CCc3c[nH]c4ccccc34)C2c2cccnc2)cc1` (stereo unspecified): the cell number change amounted to 48%. Under setting [1], the half-maximal activity concentration (AC50) was 11.6 µM [rising, single point].

As for `COc1cccc(CNC(=O)COC(=O)c2c(C)nn(-c3ccccc3)c2Cl)c1`, the cell number change came to 5.29%. Further, the AC50 under setting [1] is 6.51 µM [rising, single point]. For the same compound, under setting [2], the AC50 was 32.6 µM [falling, partial curve, poor fit].

As to `COc1ccc(C(=O)/C=C2\Sc3ccccc3N2C)cc1`, the cell number change is -10.5%.

Turning to `C/C(=N/NC(=O)CNC(=O)c1cccnc1)c1ccccc1`, the cell number change was -54.6%. Further, the AC50 under setting [1] is 29.1 µM [falling, single point].

Consider `CC(C)(C)c1ccc(OCCC(=O)OCC(=O)NC2CCCCC2)cc1`, for which the cell number change was determined as 0.368%. Further, the AC50 under setting [1] was 0.206 µM [falling, full curve].

In the case of `CC1(C(=O)NNC(=O)c2cccc([N+](=O)[O-])c2)CC1(Br)Br` (stereo unspecified), the cell number change was -3.44%. Under setting [2], the half-maximal activity concentration (AC50) was 29.1 µM [rising, single point].

In the case of `CN(C)S(=O)(=O)N1CCN(C(=O)N2CCCCCC2)CC1`, the cell number change amounted to 15.9%.

In the case of `COc1ccccc1CNc1ccc2c(c1)CCC2`, the cell number change is -16.4%. The AC50 under setting [2] is 29.1 µM [falling, single point].

On to `CCOC(=O)C(C)Sc1nnc(Cn2c(=O)sc3ccccc32)n1-c1ccccc1` (stereo unspecified), for which the cell number change is 14.3%. The concentration at half-maximal activity (AC50) under setting [2] is 0.0259 µM [rising, full curve, poor fit].

As for `O=c1[nH]c(NCCO)nc2ncn(Cc3ccccc3)c12`, the cell number change is -46.9%. The AC50 under setting [1] is 0.206 µM [falling, full curve]. Besides, the AC50 under setting [2] is 1.16 µM [falling, full curve].

Turning to `CCN(c1ccccc1)S(=O)(=O)c1ccc(OC)c(NC(=O)c2ccccc2OC)c1`, the cell number change is 41%. Besides, under setting [1], the concentration at half-maximal activity (AC50) was 11.6 µM [rising, partial curve, poor fit].

As to `Cc1ccc([N+](=O)[O-])cc1S(=O)(=O)N1CCNCC1`, the cell number change was -33.9%. For the same compound, the half-maximal activity concentration (AC50) under setting [2] is 6.51 µM [falling, single point].

Take `O=C(Nc1nnc(C2COc3ccccc3O2)o1)c1ccc(F)cc1` (stereo unspecified): the cell number change is 2.87%. In addition, the half-maximal activity concentration (AC50) under setting [2] was 23.1 µM [falling, single point].

With `O=C(Nc1cccnc1)Nc1ccccn1`, the cell number change stood at 17.8%. In addition, the half-maximal activity concentration (AC50) under setting [2] is 0.291 µM [rising, full curve, poor fit].

On to `CC(C)(C)OC(=O)N[C@H](C(=O)OC(C)(C)C)c1ccc(C(F)(F)F)cc1`, for which the cell number change was -20.8%. In addition, under setting [1], the half-maximal activity concentration (AC50) is 0.146 µM [falling, full curve, poor fit]. Also, the AC50 under setting [2] was 0.116 µM [falling, full curve, poor fit].

For `CSc1ccc(C(=O)C2CCCN(C(=O)c3nonc3C)C2)cc1` (stereo unspecified), the cell number change is -0.463%.

Regarding `Cc1cc(C)nc(N2CCCC(C(=O)NC(C)C)C2)n1` (stereo unspecified), the cell number change is 14%. Further, the AC50 under setting [1] is 0.092 µM [falling, full curve, poor fit].

Regarding `COc1cc(OC)nc(NC(C)=O)n1`, the cell number change came out at 42.6%. In addition, under setting [1], the AC50 is 29.1 µM [rising, single point]. In addition, the AC50 under setting [2] is 29.1 µM [rising, partial curve].

In the case of `Cc1ccc(O)c(C(=O)c2cnc3c(c2)CN(CCC(C)C)C(=O)N3)c1`, the cell number change is -36.7%. Moreover, under setting [1], the AC50 was 2.59 µM [falling, partial curve].

For `CCCCNC(=O)CCCCn1c(=S)[nH]c2c([nH]c3ccc(OC)cc32)c1=O`, the cell number change is -18.8%. For the same compound, the AC50 under setting [2] is 7.31 µM [falling, partial curve].

For the compound `Cc1csc2c(C#N)c(=O)c3c(n12)CCC3`, the cell number change amounted to 11.1%. Further, under setting [2], the AC50 is 16.4 µM [rising, partial curve].

Turning to `Cc1ccc(CNC(=O)c2ccc(NS(=O)(=O)c3cccs3)cc2)cc1`, the cell number change came out at 25.2%. Besides, under setting [2], the half-maximal activity concentration (AC50) was 29.1 µM [rising, single point].

For the compound `COc1cccc(Oc2ccc(C(F)(F)F)cc2N)c1`, the cell number change is -28.3%. Also, the AC50 under setting [2] is 29.1 µM [falling, single point].

On to `CN(C)C=NC(=O)c1[nH]c2ccc(Cl)cc2c1-c1ccccc1`, for which the cell number change was -52.8%. For the same compound, under setting [1], the AC50 was 13 µM [falling, partial curve].

Regarding `CCOC(=O)N1CCN(C(=O)C2CCC(CNS(=O)(=O)c3ccccc3)CC2)CC1` (stereo unspecified), the cell number change is -2.45%. For the same compound, under setting [1], the half-maximal activity concentration (AC50) was 1.84 µM [rising, partial curve, poor fit]. For the same compound, the AC50 under setting [2] was 2.06 µM [rising, partial curve, poor fit].

`CNC(=S)N1N=C(c2ccc(C)cc2)CC1c1ccc(Br)cc1` (stereo unspecified): the cell number change came to 56.9%. The AC50 under setting [1] is 8.2 µM [rising, partial curve, poor fit]. For the same compound, the AC50 under setting [2] is 2.59 µM [rising, partial curve, poor fit].

Consider `O=C(NCc1cccnc1)c1ccc(Cl)c(S(=O)(=O)Nc2ccccc2C(=O)NCc2cccnc2)c1`, for which the cell number change stood at 8.09%. Under setting [2], the AC50 is 0.517 µM [falling, full curve, poor fit].

As to `CN(C)S(=O)(=O)n1cnc(C(CCO)c2ncn(S(=O)(=O)N(C)C)c2CCCO)c1` (stereo unspecified), the cell number change was 27%. The AC50 under setting [2] was 11.6 µM [rising, single point].

For the compound `O=C(Cn1cnc2cc([N+](=O)[O-])ccc2c1=O)Nc1ccc2c(c1)CCC2`, the concentration at half-maximal activity (AC50) under setting [1] is 0.184 µM [rising, full curve].

Turning to `COc1ccc(N2C(=O)CC(c3ccccc3)C2=O)cc1` (stereo unspecified), the cell number change is 7.47%. The AC50 under setting [2] is 0.291 µM [falling, full curve, poor fit].

In the case of `Cc1ccc(-c2csc3nc[nH]c(=S)c23)cc1`, the cell number change is -0.112%. Under setting [2], the half-maximal activity concentration (AC50) was 29.1 µM [falling, single point].

In the case of `S=C(NCc1ccccc1)N1CCCCC1`, the cell number change amounted to 34.5%. In addition, under setting [1], the AC50 was 23.1 µM [rising, single point]. The AC50 under setting [2] was 6.51 µM [falling, partial curve, poor fit].

`COc1cc2c(cc1OC)C(/C=C/c1ccco1)=NCC2`: the cell number change came to 5.04%. Further, the concentration at half-maximal activity (AC50) under setting [2] was 0.82 µM [falling, full curve, poor fit].

For the compound `Cc1ccc(S(=O)(=O)NC2=C(N3CCN(c4ccccc4F)CC3)C(=O)c3ccccc3C2=O)cc1`, the cell number change was -11.3%. The AC50 under setting [2] was 11.6 µM [falling, partial curve, poor fit].

For `COc1cccc(OC)c1C(=O)NC(=S)Nc1ccc2oc(=O)ccc2c1`, the cell number change was -16.7%. Under setting [2], the AC50 was 23.1 µM [falling, partial curve].

`Cc1ccc(CNc2cc(-c3nn4c(C)nnc4s3)ccc2C)s1`: the cell number change amounted to 5.95%. The half-maximal activity concentration (AC50) under setting [2] is 6.51 µM [rising, single point].

As for `COc1ccccc1C(=O)NCC(=O)N1CC=C(c2ccccc2)CC1`, the cell number change is -4.79%. Moreover, the concentration at half-maximal activity (AC50) under setting [2] was 0.146 µM [rising, full curve, poor fit].

On to `CCOC(=O)C1CCCN(c2c(C(=O)c3ccccc3)cnc3ccc(OC)cc23)C1` (stereo unspecified), for which the cell number change was determined as 36.6%. Also, under setting [1], the AC50 was 18.4 µM [rising, single point].

Consider `CSc1nnc([C@@H](NC(=O)OC(C)(C)C)C(C)C)o1`, for which the cell number change was -9.74%. In addition, under setting [1], the concentration at half-maximal activity (AC50) was 0.651 µM [rising, single point]. In addition, the AC50 under setting [2] was 0.00461 µM [falling, full curve, poor fit].
